Data on 1 substance can be found in doi:10.1101/2023.11.16.567405.

Results are given in words; binding and its absence hold for the method and conditions named. For part of these data: A result given as binding can be weak or reduced; the word gives no strength. For part of these data: Where a sequence is shown, tags or fusion partners need not be part of it.

Common to all, as to experiment: two-hybrid
Assay [1] has as its target T1, MamF (BACTH fusion) (Magnetospirillum gryphiswaldense MSR-1) (UniProt Q6NE74).
T1 sequence: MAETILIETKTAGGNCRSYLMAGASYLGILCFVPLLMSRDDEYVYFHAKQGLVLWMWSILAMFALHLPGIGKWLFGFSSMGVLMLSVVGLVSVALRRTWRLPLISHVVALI

The target in assay [2] is T2, MmsF (BACTH fusion) (Magnetospirillum gryphiswaldense MSR-1) (UniProt A4U547).
T2 sequence: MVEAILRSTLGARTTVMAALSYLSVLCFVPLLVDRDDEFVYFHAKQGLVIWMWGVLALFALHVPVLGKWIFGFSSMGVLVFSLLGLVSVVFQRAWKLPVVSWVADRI

The target in assay [3] is MmxF (BACTH fusion) (Magnetospirillum gryphiswaldense MSR-1) (UniProt V6F1W7).

For “MamJ C-terminal domain (BACTH fusion) (from UniProt V6F519) (domain or fragment)”, the binding entry in assay [1] is given as “no binding”; in assay [2], “binds”; in assay [3], “binds”.
